Reference: the supplement of paper PMC10849652
The list shows a part of the results.

By UniProt entry, the sequences of proteins in these tests, tags left out. Where a name states a change or a piece, a line headed by the entry shows the natural chain unless it says otherwise.
UniProt P61086: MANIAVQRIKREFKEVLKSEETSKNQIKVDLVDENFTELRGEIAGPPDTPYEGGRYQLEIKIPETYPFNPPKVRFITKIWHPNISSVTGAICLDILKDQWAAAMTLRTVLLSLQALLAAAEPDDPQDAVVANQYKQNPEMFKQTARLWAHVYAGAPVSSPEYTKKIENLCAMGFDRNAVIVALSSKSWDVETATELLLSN
UniProt Q969M7: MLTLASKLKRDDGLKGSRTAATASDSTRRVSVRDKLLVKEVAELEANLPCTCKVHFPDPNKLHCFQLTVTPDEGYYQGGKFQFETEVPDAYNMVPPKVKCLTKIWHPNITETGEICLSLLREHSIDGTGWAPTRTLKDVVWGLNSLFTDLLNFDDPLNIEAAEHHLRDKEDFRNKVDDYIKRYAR
UniProt O95881: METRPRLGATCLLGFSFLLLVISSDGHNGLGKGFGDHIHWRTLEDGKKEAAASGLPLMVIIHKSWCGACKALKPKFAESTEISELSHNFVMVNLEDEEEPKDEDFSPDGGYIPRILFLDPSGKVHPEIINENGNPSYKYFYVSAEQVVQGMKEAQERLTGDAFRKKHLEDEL
UniProt Q9BUF5, whole entry, looked up: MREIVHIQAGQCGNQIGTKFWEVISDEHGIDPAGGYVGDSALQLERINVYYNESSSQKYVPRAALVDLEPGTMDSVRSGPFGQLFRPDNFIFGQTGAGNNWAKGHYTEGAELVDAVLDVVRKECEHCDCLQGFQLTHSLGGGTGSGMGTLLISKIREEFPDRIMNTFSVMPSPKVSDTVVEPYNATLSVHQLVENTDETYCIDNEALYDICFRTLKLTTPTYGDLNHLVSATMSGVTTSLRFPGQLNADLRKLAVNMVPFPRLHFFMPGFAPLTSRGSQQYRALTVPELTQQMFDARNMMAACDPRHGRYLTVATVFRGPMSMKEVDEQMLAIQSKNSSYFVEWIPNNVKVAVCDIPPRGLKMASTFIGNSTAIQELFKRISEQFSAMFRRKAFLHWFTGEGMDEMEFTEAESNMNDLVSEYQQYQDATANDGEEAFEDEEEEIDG
UniProt Q8TBC4: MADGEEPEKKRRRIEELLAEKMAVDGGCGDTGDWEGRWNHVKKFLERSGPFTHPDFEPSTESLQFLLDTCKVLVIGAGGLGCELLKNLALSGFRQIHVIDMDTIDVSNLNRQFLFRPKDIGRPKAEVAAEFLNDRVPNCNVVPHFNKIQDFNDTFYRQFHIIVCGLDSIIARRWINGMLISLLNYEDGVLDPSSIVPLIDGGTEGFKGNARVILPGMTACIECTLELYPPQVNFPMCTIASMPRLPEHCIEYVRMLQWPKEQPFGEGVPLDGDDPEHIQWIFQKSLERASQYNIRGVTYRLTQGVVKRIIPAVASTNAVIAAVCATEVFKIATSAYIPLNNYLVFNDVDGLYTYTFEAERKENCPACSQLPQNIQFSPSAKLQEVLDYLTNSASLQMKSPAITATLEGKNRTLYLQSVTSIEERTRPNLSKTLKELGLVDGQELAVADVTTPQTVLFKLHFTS
UniProt Q13454: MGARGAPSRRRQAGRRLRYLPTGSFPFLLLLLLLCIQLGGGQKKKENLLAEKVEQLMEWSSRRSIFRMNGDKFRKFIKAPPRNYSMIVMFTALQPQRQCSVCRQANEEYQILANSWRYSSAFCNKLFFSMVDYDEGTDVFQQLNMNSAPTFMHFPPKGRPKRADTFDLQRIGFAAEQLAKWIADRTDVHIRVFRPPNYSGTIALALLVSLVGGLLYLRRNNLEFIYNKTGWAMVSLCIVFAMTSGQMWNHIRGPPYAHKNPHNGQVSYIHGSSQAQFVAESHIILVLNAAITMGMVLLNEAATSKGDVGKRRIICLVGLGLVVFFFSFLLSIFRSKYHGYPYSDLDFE
UniProt Q969E8: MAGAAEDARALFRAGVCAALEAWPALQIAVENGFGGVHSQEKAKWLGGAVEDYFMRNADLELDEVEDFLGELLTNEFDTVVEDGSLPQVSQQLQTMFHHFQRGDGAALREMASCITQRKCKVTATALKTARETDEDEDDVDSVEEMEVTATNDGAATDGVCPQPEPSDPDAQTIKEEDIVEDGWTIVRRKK
UniProt Q6PKC3: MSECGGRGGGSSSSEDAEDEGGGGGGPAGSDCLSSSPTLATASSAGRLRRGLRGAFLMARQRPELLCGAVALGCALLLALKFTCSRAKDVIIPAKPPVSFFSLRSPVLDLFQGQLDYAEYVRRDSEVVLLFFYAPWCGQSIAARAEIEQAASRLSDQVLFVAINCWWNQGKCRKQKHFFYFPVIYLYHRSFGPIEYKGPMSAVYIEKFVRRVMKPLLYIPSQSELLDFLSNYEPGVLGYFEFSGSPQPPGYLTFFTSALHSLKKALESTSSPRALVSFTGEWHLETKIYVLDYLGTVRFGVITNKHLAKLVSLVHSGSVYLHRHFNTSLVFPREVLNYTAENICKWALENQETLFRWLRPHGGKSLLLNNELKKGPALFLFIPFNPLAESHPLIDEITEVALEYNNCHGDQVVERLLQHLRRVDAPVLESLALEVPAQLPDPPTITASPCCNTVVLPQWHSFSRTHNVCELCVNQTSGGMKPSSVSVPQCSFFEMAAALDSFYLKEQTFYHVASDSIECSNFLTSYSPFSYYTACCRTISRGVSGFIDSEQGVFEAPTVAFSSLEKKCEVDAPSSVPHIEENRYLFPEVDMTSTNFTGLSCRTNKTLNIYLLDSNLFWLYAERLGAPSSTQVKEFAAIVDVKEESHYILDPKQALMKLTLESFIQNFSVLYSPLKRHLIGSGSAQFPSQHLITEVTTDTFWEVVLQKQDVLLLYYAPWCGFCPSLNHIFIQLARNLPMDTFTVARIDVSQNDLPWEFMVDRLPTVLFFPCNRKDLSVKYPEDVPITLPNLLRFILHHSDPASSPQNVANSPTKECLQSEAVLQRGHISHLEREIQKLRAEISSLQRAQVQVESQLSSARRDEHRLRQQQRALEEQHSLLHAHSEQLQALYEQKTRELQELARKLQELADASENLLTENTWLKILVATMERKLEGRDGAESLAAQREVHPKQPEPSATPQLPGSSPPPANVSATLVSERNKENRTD
UniProt Q9NPD8: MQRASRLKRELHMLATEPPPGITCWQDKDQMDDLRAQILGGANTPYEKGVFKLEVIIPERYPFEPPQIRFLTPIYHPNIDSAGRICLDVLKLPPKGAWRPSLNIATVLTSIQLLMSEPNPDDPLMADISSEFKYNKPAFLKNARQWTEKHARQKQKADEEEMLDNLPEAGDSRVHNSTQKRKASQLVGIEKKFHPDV
UniProt Q96AE7: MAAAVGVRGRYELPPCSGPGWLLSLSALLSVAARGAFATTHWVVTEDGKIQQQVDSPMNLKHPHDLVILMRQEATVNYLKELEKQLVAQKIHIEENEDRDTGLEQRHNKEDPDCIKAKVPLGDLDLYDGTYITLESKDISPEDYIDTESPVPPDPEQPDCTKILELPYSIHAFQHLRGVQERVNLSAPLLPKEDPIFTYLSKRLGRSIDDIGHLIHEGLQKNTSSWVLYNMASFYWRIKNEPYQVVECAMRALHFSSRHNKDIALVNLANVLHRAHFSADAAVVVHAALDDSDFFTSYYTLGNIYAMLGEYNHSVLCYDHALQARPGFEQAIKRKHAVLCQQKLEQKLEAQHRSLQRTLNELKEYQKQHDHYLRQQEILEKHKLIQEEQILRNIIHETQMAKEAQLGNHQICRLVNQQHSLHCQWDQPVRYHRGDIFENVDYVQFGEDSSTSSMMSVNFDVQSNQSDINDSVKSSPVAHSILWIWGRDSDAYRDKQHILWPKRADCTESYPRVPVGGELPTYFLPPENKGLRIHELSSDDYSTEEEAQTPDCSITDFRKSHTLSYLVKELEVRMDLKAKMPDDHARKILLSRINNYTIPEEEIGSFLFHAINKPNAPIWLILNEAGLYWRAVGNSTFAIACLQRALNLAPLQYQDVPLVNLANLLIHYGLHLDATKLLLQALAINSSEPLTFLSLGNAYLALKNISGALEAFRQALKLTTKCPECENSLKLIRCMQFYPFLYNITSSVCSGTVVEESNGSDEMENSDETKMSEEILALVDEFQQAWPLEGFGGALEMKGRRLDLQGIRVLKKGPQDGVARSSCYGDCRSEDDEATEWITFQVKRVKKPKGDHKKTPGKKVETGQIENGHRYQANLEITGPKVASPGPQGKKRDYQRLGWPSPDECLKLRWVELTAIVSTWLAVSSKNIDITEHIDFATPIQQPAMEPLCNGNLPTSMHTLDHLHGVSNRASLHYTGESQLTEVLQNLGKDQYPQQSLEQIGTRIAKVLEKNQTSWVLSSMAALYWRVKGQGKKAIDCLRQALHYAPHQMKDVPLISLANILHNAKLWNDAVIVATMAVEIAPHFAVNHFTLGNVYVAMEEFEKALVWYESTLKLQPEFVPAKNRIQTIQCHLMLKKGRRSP
UniProt Q9BRA2: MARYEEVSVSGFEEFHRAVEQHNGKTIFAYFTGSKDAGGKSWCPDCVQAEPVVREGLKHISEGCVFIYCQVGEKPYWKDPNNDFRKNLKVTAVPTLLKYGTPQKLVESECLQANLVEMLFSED
UniProt P40222: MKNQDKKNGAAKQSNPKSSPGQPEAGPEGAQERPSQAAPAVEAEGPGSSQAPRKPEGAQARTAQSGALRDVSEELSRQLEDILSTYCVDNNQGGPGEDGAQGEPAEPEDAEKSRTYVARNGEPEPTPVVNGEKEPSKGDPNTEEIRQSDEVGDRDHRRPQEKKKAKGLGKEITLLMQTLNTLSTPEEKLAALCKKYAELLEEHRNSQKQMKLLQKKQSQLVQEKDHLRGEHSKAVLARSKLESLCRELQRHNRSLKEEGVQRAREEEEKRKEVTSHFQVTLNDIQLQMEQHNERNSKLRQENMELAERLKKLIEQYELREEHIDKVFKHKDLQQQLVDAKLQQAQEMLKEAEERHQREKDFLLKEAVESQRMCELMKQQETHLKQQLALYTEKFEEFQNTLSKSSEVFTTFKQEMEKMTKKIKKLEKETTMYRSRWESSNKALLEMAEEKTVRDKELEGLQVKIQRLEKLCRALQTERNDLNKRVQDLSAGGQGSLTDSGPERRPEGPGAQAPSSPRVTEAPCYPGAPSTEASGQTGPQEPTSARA
UniProt Q6IBS0: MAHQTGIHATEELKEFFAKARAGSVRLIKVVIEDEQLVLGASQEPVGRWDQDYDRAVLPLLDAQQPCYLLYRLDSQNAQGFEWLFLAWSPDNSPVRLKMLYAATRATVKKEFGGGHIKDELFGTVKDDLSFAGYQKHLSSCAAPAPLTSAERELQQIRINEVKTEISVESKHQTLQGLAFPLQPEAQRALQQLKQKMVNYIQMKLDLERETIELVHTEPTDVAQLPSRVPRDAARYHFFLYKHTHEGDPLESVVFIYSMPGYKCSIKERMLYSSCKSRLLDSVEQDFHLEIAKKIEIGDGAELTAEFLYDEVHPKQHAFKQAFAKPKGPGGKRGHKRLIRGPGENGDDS
UniProt Q9NNW7, whole entry, looked up: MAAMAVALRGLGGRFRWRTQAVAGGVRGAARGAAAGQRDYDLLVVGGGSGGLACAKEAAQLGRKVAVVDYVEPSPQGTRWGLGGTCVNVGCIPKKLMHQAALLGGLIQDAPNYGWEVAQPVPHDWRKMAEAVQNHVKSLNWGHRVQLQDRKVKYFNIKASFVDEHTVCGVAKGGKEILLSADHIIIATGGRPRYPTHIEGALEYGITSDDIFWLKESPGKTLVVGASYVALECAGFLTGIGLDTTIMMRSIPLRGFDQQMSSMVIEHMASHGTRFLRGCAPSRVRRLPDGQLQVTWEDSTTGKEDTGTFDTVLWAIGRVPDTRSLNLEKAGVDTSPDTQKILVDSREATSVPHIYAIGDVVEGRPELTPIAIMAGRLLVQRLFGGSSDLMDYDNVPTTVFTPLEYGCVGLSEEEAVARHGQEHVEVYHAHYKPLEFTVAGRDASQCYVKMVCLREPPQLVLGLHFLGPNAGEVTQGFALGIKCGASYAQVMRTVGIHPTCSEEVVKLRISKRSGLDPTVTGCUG
UniProt Q712K3: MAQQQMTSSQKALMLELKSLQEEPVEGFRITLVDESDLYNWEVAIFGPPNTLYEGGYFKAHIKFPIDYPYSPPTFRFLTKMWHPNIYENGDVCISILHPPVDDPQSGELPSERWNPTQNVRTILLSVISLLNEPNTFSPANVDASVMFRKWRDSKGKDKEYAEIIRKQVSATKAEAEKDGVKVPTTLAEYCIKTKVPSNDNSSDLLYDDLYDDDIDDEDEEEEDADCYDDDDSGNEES
UniProt Q96J42: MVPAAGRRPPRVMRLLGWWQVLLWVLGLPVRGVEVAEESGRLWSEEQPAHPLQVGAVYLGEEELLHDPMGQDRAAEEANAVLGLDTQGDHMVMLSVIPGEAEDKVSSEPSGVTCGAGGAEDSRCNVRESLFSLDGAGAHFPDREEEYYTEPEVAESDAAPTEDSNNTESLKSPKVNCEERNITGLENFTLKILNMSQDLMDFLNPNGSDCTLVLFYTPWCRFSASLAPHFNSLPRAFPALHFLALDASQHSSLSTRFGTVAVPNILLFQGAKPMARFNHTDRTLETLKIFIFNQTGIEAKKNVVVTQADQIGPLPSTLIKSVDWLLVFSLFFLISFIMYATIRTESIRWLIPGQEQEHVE

Key:
Assay in all cases: log2 fold change, soluble protein after heating vs DMSO (PISA); higher = thermal stabilisation; K562 cells, 10 uM, 30 min; active = over 0.2 and 3.5 SD of the protein, either way, in both replicates (recomputed)
[1] = compound: CS(=O)(=O)c1ccc(-c2cnc(N)c(C(=O)Nc3ccccc3)n2)cc1
Summary of the method: (§1)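 Soluble protein was defined as the supernatant after 21,000xg for 90 min. It came from K562 cells at 2×10^6 cells/mL given 10 μM compound for 30 min, heated in aliquots for 3 min across 48°C-58°C, pooled, and extracted in PBS with 0.5% NP-40 at 4°C, and was quantified by TMTpro 16plex LC-MS/MS with equalised channel sums. Thermal stability against control samples, from duplicates, is reported as log2 fold change.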

[2] = compound: C[C@@H](Oc1cc(-c2cnn(C3CCNCC3)c2)cnc1N)c1c(Cl)ccc(F)c1Cl [crizotinib]
Summary of the method: as §1

[3] = compound: C[C@@H]1COCCN1C2=NC(=NC(=C2)C3(CC3)S(=O)(=O)C)C4=C5C=CNC5=CC=C4
Summary of the method: as §1

[4] = compound: C[C@H](C1=CC=C(C=C1)C(=O)NC2=C3C=CNC3=NC=C2)N
Summary of the method: as §1

[5] = compound: C[C@H](Nc1ncnc2nc[nH]c12)c1cc2cccc(Cl)c2c(=O)n1-c1ccccc1 [duvelisib]
Summary of the method: as §1

[6] = compound: Cc1cc(Nc2cc(CN3CCOCC3)c3nc(C)c(Cc4ccc(Cl)cc4F)n3n2)n[nH]1 [gandotinib]
Summary of the method: as §1

[7] = compound: Cc1cc(Nc2cc(N3CCN(C)CC3)nc(Sc3ccc(NC(=O)C4CC4)cc3)n2)n[nH]1 [tozasertib]
Summary of the method: as §1

[8] = compound: Cc1cc(SCc2sc(-c3ccc(C(F)(F)F)cc3)nc2C)ccc1OCC(=O)O
Summary of the method: as §1

[9] = compound: Cc1ccc(-n2nc(C(C)(C)C)cc2NC(=O)Nc2ccc(OCCN3CCOCC3)c3ccccc23)cc1 [doramapimod]
Summary of the method: as §1

[10] = compound: Cc1ccc(C(=O)N(CCCN)[C@@H](c2nc3cc(Cl)ccc3c(=O)n2Cc2ccccc2)C(C)C)cc1 [ispinesib]
Summary of the method: as §1

Measured: log2 fold change

UAP1L1 (UniProt Q3KQV9)
inactive: [1] 0.036 | [2] -0.076 | [3] 0.134 | [4] 0.097 | [5] 0.109 | [6] -0.085 | [7] -0.064 | [8] 0.014 | [9] 0.001 | [10] -0.025

TTMP isoform 3 (UniProt Q5BVD1)
inactive: [1] 0.146 | [2] -0.018 | [3] 0.203 | [4] -0.229 | [5] 0.102 | [6] 0.143 | [7] -0.047 | [8] -0.043 | [9] 0.05 | [10] -0.054

UBE2O (UniProt Q9C0C9)
inactive: [1] 0.041 | [2] -0.039 | [3] -0.016 | [4] -0.004 | [5] 0.034 | [6] -0.061 | [7] -0.006 | [8] 0.021 | [9] 0.021 | [10] -0.031

UBE2K (UniProt P61086)
inactive: [1] 0.013 | [2] 0.005 | [3] 0.044 | [4] -0.127 | [5] 0.001 | [6] 0.021 | [7] 0.035 | [8] -0.027 | [9] -0.015 | [10] 0.129

UBE2F isoform 2 (UniProt Q969M7)
inactive: [1] -0.005 | [2] 0.012 | [3] 0.043 | [4] -0.05 | [5] 0.054 | [6] 0.128 | [7] -0.048 | [8] 0.026 | [9] 0.024 | [10] -0.005

TXNDC12 (UniProt O95881)
inactive: [1] 0.049 | [2] 0.081 | [3] 0.029 | [4] 0.196 | [5] 0.054 | [6] 0.103 | [7] 0.056 | [8] -0.032 | [9] 0.001 | [10] 0.006

TTL (UniProt Q8NG68)
inactive: [1] 0.015 | [2] -0.027 | [3] 0.083 | [4] 0.076 | [5] 0.016 | [6] 0.053 | [7] 0.085 | [8] 0.007 | [9] 0.012 | [10] -0.04

TUBB6 (UniProt Q9BUF5)
inactive: [1] 0.063 | [2] -0.07 | [3] 0.042 | [4] -0.004 | [5] 0.02 | [6] -0.018 | [7] -0.039 | [8] -0.004 | [9] 0.003 | [10] 0.007

TUBGCP2 isoform 4 (UniProt Q9BSJ2)
inactive: [1] 0.034 | [2] -0.103 | [3] -0.062 | [4] 0.327 | [5] -0.068 | [6] 0.098 | [7] -0.043 | [8] 0.136 | [9] 0.15 | [10] -0.342

UBA3 (UniProt Q8TBC4)
inactive: [1] 0.039 | [2] -0.11 | [3] 0.086 | [4] -0.09 | [5] 0.023 | [6] -0.111 | [7] -0.025 | [8] 0.068 | [9] 0.025 | [10] -0.017

TUSC3 isoform 2 (UniProt Q13454)
inactive: [1] -0.032 | [2] -0.002 | [3] -0.01 | [4] 0.088 | [5] 0.008 | [6] 0.118 | [7] -0.04 | [8] -0.019 | [9] 0.025 | [10] -0.062

TSR2 (UniProt Q969E8)
inactive: [1] 0.028 | [2] 0.047 | [3] -0.011 | [4] -0.158 | [5] 0.045 | [6] -0.133 | [7] 0.149 | [8] 0.008 | [9] -0.008 | [10] 0.13

TXNDC11 (UniProt Q6PKC3)
inactive: [1] -0.016 | [2] 0.033 | [3] 0.133 | [4] 0.031 | [5] 0.07 | [6] 0.046 | [7] 0.032 | [8] 0.025 | [9] -0.024 | [10] -0.024

UBE2T (UniProt Q9NPD8)
inactive: [1] -0.009 | [2] 0.046 | [3] 0.082 | [4] -0.004 | [5] 0.063 | [6] -0.04 | [7] -0.006 | [8] 0.016 | [9] -0.007 | [10] -0.01

UBE2NL (UniProt Q5JXB2)
inactive: [1] -0.028 | [2] 0 | [3] 0.108 | [4] -0.045 | [5] 0.048 | [6] -0.039 | [7] 0.076 | [8] -0.021 | [9] 0.002 | [10] 0.006

Quoted from above (2 entries):
TSR2 (UniProt Q969E8)
inactive: [1] 0.028 | [2] 0.047 | [3] -0.011 | [4] -0.158 | [5] 0.045 | [6] -0.133 | [7] 0.149 | [8] 0.008 | [9] -0.008 | [10] 0.13

TXNDC11 (UniProt Q6PKC3)
inactive: [1] -0.016 | [2] 0.033 | [3] 0.133 | [4] 0.031 | [5] 0.07 | [6] 0.046 | [7] 0.032 | [8] 0.025 | [9] -0.024 | [10] -0.024

Later entries.

TTC17 (UniProt Q96AE7)
inactive: [1] 0.011 | [2] 0.067 | [3] -0.003 | [4] 0.037 | [5] -0.019 | [6] 0.265 | [7] -0.038 | [8] -0.048 | [9] 0.046 | [10] 0.03

UBE2G1 (UniProt P62253)
inactive: [1] -0.009 | [2] -0.011 | [3] 0.076 | [4] -0.13 | [5] -0.045 | [6] -0.092 | [7] 0.05 | [8] 0.014 | [9] 0.018 | [10] 0.01

TUBA3C (UniProt P0DPH7)
inactive: [1] 0.089 | [2] -0.089 | [3] 0.012 | [4] 0.007 | [5] 0.3 | [6] -0.04 | [7] -0.064 | [8] 0.068 | [9] 0.086 | [10] -0.021

TXNDC17 (UniProt Q9BRA2)
inactive: [1] 0.003 | [2] 0.017 | [3] 0.048 | [4] -0.112 | [5] 0.043 | [6] -0.012 | [7] 0.057 | [8] -0.041 | [9] -0.023 | [10] 0.043

UBE2I (UniProt P63279)
inactive: [1] 0.026 | [2] 0.005 | [3] 0.092 | [4] -0.08 | [5] 0.033 | [6] -0.009 | [7] -0.014 | [8] 0.027 | [9] -0.067 | [10] 0.051

TTC1 (UniProt Q99614)
inactive: [1] 0.022 | [2] 0.055 | [3] -0.006 | [4] -0.024 | [5] 0.014 | [6] 0.043 | [7] -0.021 | [8] -0.035 | [9] -0.012 | [10] 0.037

TXLNA (UniProt P40222)
inactive: [1] 0.003 | [2] 0.025 | [3] 0.012 | [4] -0.112 | [5] 0.03 | [6] -0.022 | [7] -0.002 | [8] 0.004 | [9] -0.019 | [10] 0.063

TWF2 (UniProt Q6IBS0)
inactive: [1] 0.021 | [2] -0.032 | [3] 0.047 | [4] -0.059 | [5] -0.004 | [6] -0.069 | [7] 0.015 | [8] -0.013 | [9] 0.008 | [10] 0.136

TXNRD2 (UniProt Q9NNW7)
inactive: [1] 0.024 | [2] -0.006 | [3] -0.073 | [4] -0.107 | [5] 0.065 | [6] -0.014 | [7] -0.021 | [8] -0.024 | [9] 0.004 | [10] 0.007

TXNDC16 (UniProt Q9P2K2)
inactive: [1] 0.01 | [2] -0.04 | [3] -0.014 | [4] 0.06 | [5] -0.014 | [6] 0.037 | [7] -0.015 | [8] 0.041 | [9] 0.161 | [10] -0.097

UBAP2 (UniProt Q5T6F2)
inactive: [1] 0.006 | [2] 0.031 | [3] -0.006 | [4] -0.035 | [5] -0.015 | [6] 0.015 | [7] -0.007 | [8] -0.038 | [9] -0.002 | [10] -0.011

UBE2M (UniProt P61081)
inactive: [1] 0.027 | [2] -0.019 | [3] 0.105 | [4] -0.021 | [5] 0.063 | [6] -0.019 | [7] 0.008 | [8] 0.01 | [9] -0.049 | [10] 0.046

UBE2R2 (UniProt Q712K3)
inactive: [1] 0.027 | [2] 0.084 | [3] 0.079 | [4] -0.066 | [5] 0.011 | [6] -0.04 | [7] 0.097 | [8] 0.033 | [9] -0.028 | [10] 0.042

UAP1 (UniProt Q16222)
inactive: [1] 0.037 | [2] 0.012 | [3] 0.081 | [4] -0.116 | [5] 0.032 | [6] -0.043 | [7] -0.022 | [8] 0.014 | [9] -0.043 | [10] 0.019

TXNDC15 (UniProt Q96J42)
inactive: [1] 0.069 | [2] -0.08 | [3] 0.099 | [4] 0.179 | [5] 0.023 | [6] -0.062 | [7] -0.147 | [8] 0.023 | [9] 0.068 | [10] 0.013
